Test results reported in the supplement of paper PMC10849652.
Some of the results follow.

Sequences of proteins named here, by UniProt entry; tags and fusion partners are left off. A change or cut given only in a name is not applied to a line headed by its entry.
UniProt O00217, whole entry, looked up: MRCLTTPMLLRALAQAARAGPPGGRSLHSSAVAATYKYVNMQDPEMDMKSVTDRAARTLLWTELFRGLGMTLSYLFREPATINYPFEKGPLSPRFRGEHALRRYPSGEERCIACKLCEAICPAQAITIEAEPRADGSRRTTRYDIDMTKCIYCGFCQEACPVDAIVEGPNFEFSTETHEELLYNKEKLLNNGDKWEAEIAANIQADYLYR
UniProt Q96I59: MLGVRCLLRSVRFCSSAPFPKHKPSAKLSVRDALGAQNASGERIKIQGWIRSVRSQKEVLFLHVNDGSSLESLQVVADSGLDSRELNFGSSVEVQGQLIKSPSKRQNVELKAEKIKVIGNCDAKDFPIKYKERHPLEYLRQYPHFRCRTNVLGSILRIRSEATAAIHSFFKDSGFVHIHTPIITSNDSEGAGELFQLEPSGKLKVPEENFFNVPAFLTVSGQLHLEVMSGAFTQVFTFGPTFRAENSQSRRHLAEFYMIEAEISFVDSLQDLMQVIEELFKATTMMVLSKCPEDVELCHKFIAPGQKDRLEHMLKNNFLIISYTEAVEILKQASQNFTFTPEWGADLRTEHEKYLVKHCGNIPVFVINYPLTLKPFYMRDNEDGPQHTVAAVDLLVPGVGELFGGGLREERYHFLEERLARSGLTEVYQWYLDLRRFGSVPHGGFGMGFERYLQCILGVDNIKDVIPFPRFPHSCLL
UniProt Q16795, whole entry, looked up: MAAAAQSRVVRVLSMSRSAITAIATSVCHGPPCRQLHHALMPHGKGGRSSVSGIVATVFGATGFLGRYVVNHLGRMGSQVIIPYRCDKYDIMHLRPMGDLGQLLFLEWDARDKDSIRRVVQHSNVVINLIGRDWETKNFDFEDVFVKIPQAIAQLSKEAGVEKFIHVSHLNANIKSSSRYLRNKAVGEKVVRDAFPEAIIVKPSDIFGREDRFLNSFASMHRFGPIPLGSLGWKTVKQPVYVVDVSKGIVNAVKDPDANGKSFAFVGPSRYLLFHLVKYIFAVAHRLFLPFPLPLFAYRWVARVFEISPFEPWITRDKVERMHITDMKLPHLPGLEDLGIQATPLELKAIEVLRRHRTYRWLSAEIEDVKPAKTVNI
UniProt Q96PU5: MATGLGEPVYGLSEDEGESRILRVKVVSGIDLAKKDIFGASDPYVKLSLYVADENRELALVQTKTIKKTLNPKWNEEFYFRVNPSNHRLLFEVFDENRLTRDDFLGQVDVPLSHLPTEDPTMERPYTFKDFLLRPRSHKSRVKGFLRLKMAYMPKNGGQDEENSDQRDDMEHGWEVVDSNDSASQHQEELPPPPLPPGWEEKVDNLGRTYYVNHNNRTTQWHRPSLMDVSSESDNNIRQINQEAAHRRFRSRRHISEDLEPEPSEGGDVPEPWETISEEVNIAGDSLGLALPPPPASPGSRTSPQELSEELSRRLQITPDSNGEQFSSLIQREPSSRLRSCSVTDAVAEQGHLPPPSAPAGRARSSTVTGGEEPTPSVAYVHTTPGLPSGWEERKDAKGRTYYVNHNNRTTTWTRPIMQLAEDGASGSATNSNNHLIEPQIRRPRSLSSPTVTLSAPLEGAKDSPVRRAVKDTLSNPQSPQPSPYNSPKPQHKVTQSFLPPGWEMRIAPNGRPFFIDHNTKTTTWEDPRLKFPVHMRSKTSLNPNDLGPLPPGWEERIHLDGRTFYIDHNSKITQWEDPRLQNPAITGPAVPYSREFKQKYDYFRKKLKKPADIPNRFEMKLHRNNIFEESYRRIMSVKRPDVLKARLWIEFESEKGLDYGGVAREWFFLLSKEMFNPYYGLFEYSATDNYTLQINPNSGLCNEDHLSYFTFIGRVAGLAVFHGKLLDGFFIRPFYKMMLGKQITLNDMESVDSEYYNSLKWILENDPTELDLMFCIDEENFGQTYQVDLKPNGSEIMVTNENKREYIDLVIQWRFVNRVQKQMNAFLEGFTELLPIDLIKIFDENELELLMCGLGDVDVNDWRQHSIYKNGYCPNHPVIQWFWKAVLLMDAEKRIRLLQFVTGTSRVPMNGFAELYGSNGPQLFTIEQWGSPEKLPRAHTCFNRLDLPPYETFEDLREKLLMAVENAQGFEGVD
UniProt P55209: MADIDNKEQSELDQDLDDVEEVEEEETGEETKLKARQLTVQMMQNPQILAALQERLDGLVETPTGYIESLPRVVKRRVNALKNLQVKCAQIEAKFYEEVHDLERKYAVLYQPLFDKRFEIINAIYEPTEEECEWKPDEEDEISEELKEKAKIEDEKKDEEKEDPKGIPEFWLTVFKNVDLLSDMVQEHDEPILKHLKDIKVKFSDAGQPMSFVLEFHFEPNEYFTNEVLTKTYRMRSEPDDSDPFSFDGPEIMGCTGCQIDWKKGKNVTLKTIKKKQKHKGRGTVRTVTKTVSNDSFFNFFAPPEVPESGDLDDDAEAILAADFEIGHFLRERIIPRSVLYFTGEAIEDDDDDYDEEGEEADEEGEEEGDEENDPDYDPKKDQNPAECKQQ
UniProt Q9Y2A7: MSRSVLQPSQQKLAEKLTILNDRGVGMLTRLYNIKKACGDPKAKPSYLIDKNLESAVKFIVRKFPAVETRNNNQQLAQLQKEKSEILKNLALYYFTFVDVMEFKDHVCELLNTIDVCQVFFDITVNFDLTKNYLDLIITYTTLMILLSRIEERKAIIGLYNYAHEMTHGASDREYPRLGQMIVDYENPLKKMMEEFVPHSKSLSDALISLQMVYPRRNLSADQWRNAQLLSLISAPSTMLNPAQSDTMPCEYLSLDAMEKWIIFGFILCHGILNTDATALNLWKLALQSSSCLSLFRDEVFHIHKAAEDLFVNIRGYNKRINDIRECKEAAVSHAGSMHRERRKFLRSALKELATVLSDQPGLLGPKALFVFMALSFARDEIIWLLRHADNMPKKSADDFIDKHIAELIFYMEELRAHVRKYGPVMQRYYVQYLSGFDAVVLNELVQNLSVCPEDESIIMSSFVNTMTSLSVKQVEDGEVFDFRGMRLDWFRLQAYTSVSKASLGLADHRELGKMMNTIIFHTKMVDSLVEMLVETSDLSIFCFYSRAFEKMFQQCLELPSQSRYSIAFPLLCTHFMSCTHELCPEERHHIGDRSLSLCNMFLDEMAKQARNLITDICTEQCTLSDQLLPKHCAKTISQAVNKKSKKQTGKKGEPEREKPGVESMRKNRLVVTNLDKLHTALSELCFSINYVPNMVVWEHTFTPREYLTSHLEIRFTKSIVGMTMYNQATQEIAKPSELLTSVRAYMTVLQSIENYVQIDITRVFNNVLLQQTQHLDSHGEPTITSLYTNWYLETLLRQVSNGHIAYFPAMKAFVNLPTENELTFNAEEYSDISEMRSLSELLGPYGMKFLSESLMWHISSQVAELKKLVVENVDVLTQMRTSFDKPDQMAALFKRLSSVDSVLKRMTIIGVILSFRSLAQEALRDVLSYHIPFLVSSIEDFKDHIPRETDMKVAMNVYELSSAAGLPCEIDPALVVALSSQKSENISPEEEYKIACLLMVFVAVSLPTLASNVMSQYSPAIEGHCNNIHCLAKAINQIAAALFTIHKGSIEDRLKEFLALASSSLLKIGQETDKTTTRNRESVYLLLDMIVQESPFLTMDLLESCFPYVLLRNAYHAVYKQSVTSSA
UniProt O60934: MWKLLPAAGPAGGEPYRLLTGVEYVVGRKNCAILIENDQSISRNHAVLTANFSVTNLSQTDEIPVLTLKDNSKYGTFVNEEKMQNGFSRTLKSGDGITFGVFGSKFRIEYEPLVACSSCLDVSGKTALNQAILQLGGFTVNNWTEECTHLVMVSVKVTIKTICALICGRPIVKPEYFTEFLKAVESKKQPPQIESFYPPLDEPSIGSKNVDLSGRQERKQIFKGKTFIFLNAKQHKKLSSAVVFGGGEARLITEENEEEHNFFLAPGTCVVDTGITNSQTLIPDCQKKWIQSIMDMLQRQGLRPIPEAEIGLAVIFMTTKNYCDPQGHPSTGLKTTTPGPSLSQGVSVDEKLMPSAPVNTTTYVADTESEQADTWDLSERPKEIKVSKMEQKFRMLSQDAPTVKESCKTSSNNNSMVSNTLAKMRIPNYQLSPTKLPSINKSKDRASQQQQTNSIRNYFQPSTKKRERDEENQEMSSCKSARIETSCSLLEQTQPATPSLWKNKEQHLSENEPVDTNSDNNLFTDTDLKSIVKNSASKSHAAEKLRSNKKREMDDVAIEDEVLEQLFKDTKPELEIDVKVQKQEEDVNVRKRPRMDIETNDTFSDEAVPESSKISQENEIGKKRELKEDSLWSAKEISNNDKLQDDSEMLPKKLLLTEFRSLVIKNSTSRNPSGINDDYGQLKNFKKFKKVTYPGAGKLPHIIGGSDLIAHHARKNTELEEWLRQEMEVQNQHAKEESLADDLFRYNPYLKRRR
UniProt P46934: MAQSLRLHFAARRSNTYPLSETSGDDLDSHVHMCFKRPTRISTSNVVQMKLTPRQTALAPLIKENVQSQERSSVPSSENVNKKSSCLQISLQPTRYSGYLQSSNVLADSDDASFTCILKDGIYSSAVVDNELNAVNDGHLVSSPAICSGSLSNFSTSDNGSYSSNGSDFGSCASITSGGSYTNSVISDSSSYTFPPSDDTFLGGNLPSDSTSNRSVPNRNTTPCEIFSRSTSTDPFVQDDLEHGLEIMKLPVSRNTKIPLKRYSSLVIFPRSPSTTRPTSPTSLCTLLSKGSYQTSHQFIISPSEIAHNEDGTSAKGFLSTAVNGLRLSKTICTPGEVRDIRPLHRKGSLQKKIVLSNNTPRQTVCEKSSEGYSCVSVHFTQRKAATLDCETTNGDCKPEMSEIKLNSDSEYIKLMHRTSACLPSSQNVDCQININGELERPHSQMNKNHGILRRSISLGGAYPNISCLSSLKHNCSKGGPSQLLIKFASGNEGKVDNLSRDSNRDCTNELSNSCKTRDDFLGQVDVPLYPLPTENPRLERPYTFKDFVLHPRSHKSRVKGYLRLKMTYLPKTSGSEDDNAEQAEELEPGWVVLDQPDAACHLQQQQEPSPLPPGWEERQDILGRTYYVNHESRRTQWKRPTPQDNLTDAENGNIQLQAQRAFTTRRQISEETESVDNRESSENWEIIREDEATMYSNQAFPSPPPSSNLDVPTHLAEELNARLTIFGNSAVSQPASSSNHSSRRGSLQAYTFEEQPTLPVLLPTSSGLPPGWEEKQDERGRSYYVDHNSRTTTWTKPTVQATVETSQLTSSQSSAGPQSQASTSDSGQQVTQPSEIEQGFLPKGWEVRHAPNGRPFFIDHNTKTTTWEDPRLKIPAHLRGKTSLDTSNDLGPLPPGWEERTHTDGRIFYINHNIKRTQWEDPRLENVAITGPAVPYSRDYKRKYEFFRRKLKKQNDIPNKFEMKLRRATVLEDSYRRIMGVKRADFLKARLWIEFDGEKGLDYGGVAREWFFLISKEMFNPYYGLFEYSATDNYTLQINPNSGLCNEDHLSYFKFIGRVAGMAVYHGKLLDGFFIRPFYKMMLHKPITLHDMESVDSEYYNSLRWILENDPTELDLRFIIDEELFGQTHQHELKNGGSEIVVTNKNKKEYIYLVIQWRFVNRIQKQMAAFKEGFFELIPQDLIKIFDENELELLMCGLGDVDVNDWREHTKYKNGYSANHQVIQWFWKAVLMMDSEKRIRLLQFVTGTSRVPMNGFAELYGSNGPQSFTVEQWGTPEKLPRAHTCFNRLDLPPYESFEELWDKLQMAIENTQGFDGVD
UniProt P49321, whole entry, looked up: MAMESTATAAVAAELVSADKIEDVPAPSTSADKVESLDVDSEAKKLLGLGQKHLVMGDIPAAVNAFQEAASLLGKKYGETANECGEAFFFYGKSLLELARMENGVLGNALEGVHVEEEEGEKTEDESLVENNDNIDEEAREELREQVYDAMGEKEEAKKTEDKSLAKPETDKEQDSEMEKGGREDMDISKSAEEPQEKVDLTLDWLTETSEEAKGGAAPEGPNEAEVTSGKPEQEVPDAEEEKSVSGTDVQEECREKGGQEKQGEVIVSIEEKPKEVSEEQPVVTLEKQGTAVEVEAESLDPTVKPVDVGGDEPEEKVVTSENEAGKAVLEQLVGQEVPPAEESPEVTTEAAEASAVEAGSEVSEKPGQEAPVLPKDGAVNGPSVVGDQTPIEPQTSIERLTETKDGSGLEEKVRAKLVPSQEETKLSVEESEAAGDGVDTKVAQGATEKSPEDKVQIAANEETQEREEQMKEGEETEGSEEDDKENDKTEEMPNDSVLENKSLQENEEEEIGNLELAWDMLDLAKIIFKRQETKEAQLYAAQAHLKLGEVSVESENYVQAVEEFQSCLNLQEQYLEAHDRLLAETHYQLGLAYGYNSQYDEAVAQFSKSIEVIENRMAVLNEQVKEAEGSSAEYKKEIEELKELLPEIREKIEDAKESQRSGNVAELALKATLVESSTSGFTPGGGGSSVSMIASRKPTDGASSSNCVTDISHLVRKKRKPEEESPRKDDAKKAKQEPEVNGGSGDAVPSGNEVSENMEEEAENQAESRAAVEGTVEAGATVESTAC
UniProt P56556, whole entry, looked up: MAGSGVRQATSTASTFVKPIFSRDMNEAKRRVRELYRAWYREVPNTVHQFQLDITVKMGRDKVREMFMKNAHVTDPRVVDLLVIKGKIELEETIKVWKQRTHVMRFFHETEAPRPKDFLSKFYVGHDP

Key:
Assay in all cases: log2 fold change, soluble protein after heating vs DMSO (PISA); higher = thermal stabilisation; K562 cells, 10 uM, 30 min; active = over 0.2 and 3.5 SD of the protein, either way, in both replicates (recomputed)
[1] = compound: CN1CCN(CCOc2cc(OC3CCOCC3)c3c(Nc4c(Cl)ccc5c4OCO5)ncnc3c2)CC1 [saracatinib]
Summary of the method: (§1)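 K562 cells at 2×10^6 cells/mL were treated with 10 μM compound for 30 min. Aliquots were heated for 3 min across 48°C-58°C, pooled, and extracted in PBS with 0.5% NP-40 at 4°C; soluble protein was the supernatant after 21,000xg for 90 min. Soluble protein was quantified by TMTpro 16plex LC-MS/MS with channel sums equalised, and reported as log2 fold change in thermal stability against DMSO controls, with values from duplicates.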

[2] = compound: CN1CCN(c2nc(C3=C(c4c[nH]c5ccccc45)C(=O)NC3=O)c3ccccc3n2)CC1 [sotrastaurin]
Summary of the method: as §1

[3] = compound: CN1CCc2c(c3ccccc3n2Cc2ccc(C(=O)NO)cc2)C1 [Tubastatin A]
Summary of the method: as §1

[4] = compound: CNC(=O)C1=CC=CC=C1NC2=NC(=NC=C2Cl)NC3=C(C=C(C=C3)N4CCOCC4)OC
Summary of the method: as §1

[5] = compound: CNC(=O)c1ccc(Nc2ncc(C(F)(F)F)c(NCc3nccnc3N(C)S(C)(=O)=O)n2)cc1 [defactinib]
Summary of the method: as §1

[6] = compound: CNCc1ccc(-c2[nH]c3cc(F)cc4c3c2CCNC4=O)cc1 [rucaparib]
Summary of the method: as §1

[7] = compound: CNc1nc(-c2ccc3c(N)n[nH]c3c2)cc(N2C[C@@H](C(=O)NC3CCCCC3)CC[C@H]2C)n1
Summary of the method: as §1

[8] = compound: COC(=O)N[C@@H](C)CNc1nccc(-c2cn(C(C)C)nc2-c2cc(Cl)cc(NS(C)(=O)=O)c2F)n1 [encorafenib]
Summary of the method: as §1

[9] = compound: COC(=O)[C@H](CCSC)NC(=O)C1=C(C=C(C=C1)NC[C@H](CS)N)C2=CC=CC=C2
Summary of the method: as §1

[10] = compound: COC1=CC=C(C=C1)CN2C=CC3=C2C=C(C=C3)C(=O)NO
Summary of the method: as §1

[11] = compound: CON(C)C(=O)N1N=C(c2cc(F)ccc2F)S[C@@]1(CCCN)c1ccccc1 [filanesib]
Summary of the method: as §1

[12] = compound: CO[C@H]1C[C@@H]2CC[C@@H](C)[C@@](O)(O2)C(=O)C(=O)N2CCCC[C@H]2C(=O)O[C@H]([C@H](C)C[C@@H]2CC[C@H](n3cnnn3)[C@H](OC)C2)CC(=O)[C@H](C)/C=C(\C)[C@@H](O)[C@@H](OC)C(=O)[C@H](C)C[C@H](C)/C=C/C=C/C=C/1C [zotarolimus]
Summary of the method: as §1

[13] = compound: COc1cc(C(=O)O)ccc1NC(=O)[C@@H]1N[C@@H](CC(C)(C)C)[C@](C#N)(c2ccc(Cl)cc2F)[C@H]1c1cccc(Cl)c1F [idasanutlin]
Summary of the method: as §1

[14] = compound: COc1cc(Nc2ncc3c(n2)-c2ccc(Cl)cc2C(c2c(F)cccc2OC)=NC3)ccc1C(=O)O [alisertib]
Summary of the method: as §1

[15] = compound: COc1cc2nc(-c3cc(F)ccc3O)nc(N[C@@H]3CNC[C@H]3C(C)(C)O)c2cc1OC
Summary of the method: as §1

[16] = compound: COc1cc2ncnc(Nc3ccc(F)c(Cl)c3)c2cc1OCCCN1CCOCC1 [gefitinib]
Summary of the method: as §1

[17] = compound: COc1cccc2cc(-c3nc([C@H]4CC[C@H](C(=O)O)CC4)n4ncnc(N)c34)[nH]c12
Summary of the method: as §1

[18] = compound: CS(=O)(=O)CCNCc1ccc(-c2ccc3ncnc(Nc4ccc(OCc5cccc(F)c5)c(Cl)c4)c3c2)o1 [lapatinib]
Summary of the method: as §1

[19] = compound: CS(=O)(=O)N1CCN(Cc2cc3nc(-c4cccc5[nH]ncc45)nc(N4CCOCC4)c3s2)CC1 [pictilisib]
Summary of the method: as §1

Target | log2 fold change [1] | log2 fold change [2] | log2 fold change [3] | log2 fold change [4] | log2 fold change [5] | log2 fold change [6] | log2 fold change [7] | log2 fold change [8] | log2 fold change [9] | log2 fold change [10] | log2 fold change [11] | log2 fold change [12] | log2 fold change [13] | log2 fold change [14] | log2 fold change [15] | log2 fold change [16] | log2 fold change [17] | log2 fold change [18] | log2 fold change [19]
NDUFS8 (UniProt O00217) | inactive: -0.011 | inactive: -0.061 | inactive: -0.04 | inactive: -0.037 | inactive: -0.009 | inactive: -0.093 | inactive: 0.017 | inactive: 0.059 | inactive: -0.026 | inactive: -0.07 | inactive: -0.122 | inactive: -0.003 | inactive: -0.147 | inactive: -0.15 | inactive: -0.069 | inactive: -0.028 | inactive: 0.081 | inactive: 0.01 | inactive: 0.018
NCK1 (UniProt P16333) | inactive: -0.198 | active: -0.521 | inactive: 0.126 | inactive: -0.071 | inactive: -0.125 | – | inactive: 0.158 | – | inactive: -0.122 | inactive: 0.049 | inactive: -0.054 | inactive: 0.13 | inactive: -0.001 | inactive: -0.127 | inactive: -0.165 | inactive: 0.002 | inactive: -0.024 | inactive: -0.066 | –
NDUFS4 (UniProt O43181) | inactive: 0.117 | inactive: 0.1 | inactive: -0.082 | inactive: -0.025 | inactive: 0.035 | inactive: 0.011 | inactive: -0.074 | inactive: -0.051 | inactive: 0.079 | inactive: -0.018 | inactive: -0.019 | inactive: -0.022 | inactive: 0.035 | inactive: -0.074 | inactive: -0.077 | inactive: -0.008 | inactive: 0.036 | inactive: 0.029 | inactive: -0.122
NA, A0A2R8Y3M9 | inactive: 0.171 | inactive: 0.191 | – | – | – | – | inactive: -0.04 | – | – | inactive: -0.086 | inactive: 0.079 | inactive: -0.419 | inactive: 0.279 | – | inactive: -0.123 | inactive: -0.168 | – | inactive: -0.037 | inactive: -0.35
NCL (UniProt P19338) | inactive: -0.111 | inactive: 0.013 | inactive: 0.148 | inactive: -0.001 | inactive: 0.354 | inactive: 0.387 | inactive: 0.137 | inactive: 0.257 | inactive: -0.01 | inactive: -0.091 | inactive: 0.454 | inactive: 0.026 | inactive: 0.274 | inactive: -0.16 | inactive: -0.099 | inactive: -0.022 | inactive: -0.217 | inactive: 0.159 | inactive: -0.085
NARS2 (UniProt Q96I59) | inactive: -0.004 | inactive: 0.03 | inactive: -0.127 | inactive: -0.056 | inactive: 0.001 | inactive: -0.021 | inactive: -0.006 | inactive: 0.008 | inactive: -0.008 | inactive: -0.213 | inactive: -0.196 | inactive: 0.027 | inactive: -0.072 | inactive: -0.046 | inactive: 0.007 | inactive: -0.039 | inactive: 0.09 | inactive: -0.031 | inactive: -0.037
NDUFS7 (UniProt O75251) | inactive: -0.047 | inactive: 0.014 | inactive: -0.001 | inactive: -0.038 | inactive: -0.016 | inactive: -0.004 | inactive: -0.048 | inactive: 0.024 | inactive: 0.002 | inactive: -0.009 | inactive: -0.108 | inactive: -0.036 | inactive: -0.112 | inactive: 0.039 | inactive: -0.106 | inactive: -0.029 | inactive: 0.057 | inactive: 0.015 | inactive: 0.047
NDUFA9 (UniProt Q16795) | inactive: -0.003 | inactive: -0.008 | inactive: -0.013 | inactive: -0.034 | inactive: -0.011 | inactive: -0.038 | inactive: 0.036 | inactive: 0.048 | inactive: -0.004 | inactive: -0.002 | inactive: -0.116 | inactive: 0.008 | active: -0.229 | inactive: -0.04 | inactive: -0.008 | inactive: -0.055 | inactive: 0.014 | inactive: -0.052 | inactive: -0.024
NEDD4L (UniProt Q96PU5) | inactive: -0.014 | inactive: -0.063 | inactive: 0.057 | inactive: 0.068 | inactive: -0.135 | inactive: 0.002 | inactive: -0.059 | inactive: 0.03 | inactive: -0.023 | inactive: -0.027 | inactive: 0.095 | inactive: 0.032 | inactive: -0.018 | inactive: -0.114 | inactive: 0.086 | inactive: -0.031 | inactive: 0.027 | inactive: -0.025 | inactive: -0.035
NAP1L1 (UniProt P55209) | inactive: 0.042 | inactive: -0.039 | inactive: -0.008 | inactive: 0.053 | inactive: -0.008 | inactive: 0.039 | inactive: -0.084 | inactive: 0.048 | inactive: 0.023 | inactive: -0.001 | inactive: 0.08 | inactive: 0.078 | inactive: 0.053 | inactive: -0.043 | inactive: 0.078 | inactive: -0.002 | inactive: -0.041 | inactive: -0.005 | inactive: 0.107
NCKAP1 isoform 2 (UniProt Q9Y2A7) | inactive: 0.02 | inactive: -0.031 | inactive: 0.027 | inactive: 0.006 | inactive: -0.071 | inactive: -0.022 | inactive: 0.019 | inactive: 0 | inactive: -0.007 | inactive: 0.019 | inactive: -0.042 | inactive: 0.025 | inactive: -0.035 | inactive: 0.067 | inactive: 0.008 | inactive: -0.009 | inactive: -0.038 | inactive: 0.016 | inactive: -0.049
NBN (UniProt O60934) | inactive: -0.008 | inactive: -0.03 | inactive: 0.191 | inactive: -0.065 | inactive: -0.159 | inactive: 0.006 | inactive: 0.049 | inactive: 0.003 | inactive: -0.019 | inactive: -0.039 | inactive: -0.007 | inactive: 0.039 | inactive: -0.053 | inactive: 0.057 | inactive: 0.028 | inactive: 0.03 | inactive: -0.019 | inactive: 0.008 | inactive: -0.035
NCOA5 (UniProt Q9HCD5) | inactive: 0.002 | inactive: 0.188 | – | inactive: -0.081 | – | – | inactive: -0.04 | – | – | inactive: 0.046 | inactive: 0.209 | – | – | – | inactive: 0.04 | inactive: 0.145 | – | inactive: 0.047 | inactive: -0.043
NEDD4 isoform 4 (UniProt P46934) | inactive: 0.116 | inactive: -0.026 | inactive: 0.037 | inactive: 0.041 | inactive: -0.108 | inactive: -0.099 | inactive: -0.026 | inactive: 0.049 | inactive: -0.009 | inactive: 0.036 | inactive: -0.02 | inactive: 0.064 | inactive: -0.042 | inactive: 0.053 | inactive: 0.027 | inactive: 0.074 | inactive: -0.029 | inactive: 0.028 | inactive: -0.017
NASP (UniProt P49321) | inactive: 0 | inactive: -0.045 | inactive: 0.012 | inactive: 0.073 | inactive: -0.085 | inactive: -0.11 | inactive: -0.041 | inactive: 0.001 | inactive: -0.004 | inactive: 0.01 | inactive: -0.009 | inactive: 0.05 | inactive: -0.021 | inactive: -0.03 | inactive: 0.029 | inactive: 0.001 | inactive: -0.023 | inactive: -0.023 | inactive: 0.007
NDFIP1 (UniProt Q9BT67) | inactive: -0.274 | inactive: -0.028 | inactive: 0.056 | inactive: 0.124 | inactive: 0.015 | inactive: 0.286 | inactive: -0.187 | inactive: -0.001 | inactive: -0.115 | inactive: 0.051 | inactive: -0.134 | inactive: 0.106 | inactive: -0.034 | inactive: -0.105 | – | inactive: -0.155 | inactive: -0.14 | – | inactive: 0.228
NDUFA6 (UniProt P56556) | inactive: -0.037 | inactive: 0.003 | inactive: 0.021 | inactive: -0.039 | inactive: -0.068 | inactive: 0.006 | inactive: 0.044 | inactive: 0.034 | inactive: -0.039 | inactive: 0.097 | inactive: -0.035 | inactive: 0.05 | active: -0.383 | inactive: 0.044 | inactive: 0.048 | inactive: -0.004 | inactive: 0.068 | inactive: 0.097 | inactive: 0.087
NAP1L4 (UniProt C9J6D1) | inactive: -0.113 | inactive: 0.021 | – | – | – | – | inactive: -0.065 | – | – | inactive: -0.297 | inactive: 0.076 | – | inactive: 0.088 | – | – | – | – | – | –

Copied from the list.
Value for NAP1L1 (UniProt P55209) under log2 fold change [9]: inactive: 0.023
Value for NCOA5 (UniProt Q9HCD5) under log2 fold change [15]: inactive: 0.04
